# Measured values as given in US11278530B2, “Polycyclic amides as muscarinic M1 receptor positive allosteric modulators” (SUVEN LIFE SCIENCES LIMITED, priority 2017, dated 2022).
# Tested on: hippocampal θ rhythm, anesthetized male Wistar rats
# Test: Theta modulation in dorsal hippocampus of anesthetized rats in combination with donepezil
# Type: in vivo
# Settings: donepezil alone 0.3 mg/kg, i.v., anesthetized rat
smiles,measurement,value
"COc1cc2c(cc1OC)C(=O)C(CC1CCN(Cc3ccccc3)CC1)C2 (stereo not shown) [donepezil, reference compound]",hippocampal θ power,moderate increase
